Measurements taken from article PMC13391367.
Construct, isoform or probe ends are uncertain for at least one entry. The comparison behind a weaker result is the experiment's own reference, which may not be listed here.

Target: UAP56 (UniProt Q13838)
Test: pull-down (NeutrAvidin beads, RNA unclamping assay)
Conditions: releases UAP56 from RNA, 2.2 or 0.44 uM, RNA unclamping: 20 mM HEPES pH 7.9, 40 mM KCl, 2 mM MgCl2, 5% glycerol, 0.1% Igepal CA-630, 1 mM ATP at loading, room temperature, 500 mM KCl wash, recombinant protein, residues 1-428, protein details: 10xHis-3C (N-term)

UUUUUUUUUUUUUUU [biotinylated 15U RNA]: binds more weakly (LENG8-PSM (P2) challenge); binds more weakly (SAC3D1-PSM (P5) challenge).
